The list shows a part of the results.
Columns and labels:
Assay in all cases: log2 fold change, soluble protein after heating vs DMSO (PISA); higher = thermal stabilisation; K562 lysate, 10 uM; active = over 0.2 and 3.5 SD of the protein, either way, in both replicates (recomputed)
[1] = compound: CCCS(=O)(=O)Nc1ccc(F)c(C(=O)c2c[nH]c3ncc(-c4ccc(Cl)cc4)cc23)c1F [vemurafenib]
Summary of the method: (§1)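 Quantification was by TMTpro 16plex LC-MS/MS with equalised channel sums, applied to the supernatant after 21,000xg for 90 min. Samples were crude K562 extract at 1 mg/mL protein in PBS pH 7.4 with 1 mM MgCl2, treated with 10 μM compound for 30 min, heated for 3 min across 48°C-58°C, pooled and brought to 0.5% NP-40 at 4°C. Values are log-two fold changes in thermal stability relative to solvent controls, from duplicates.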

The chains behind the UniProt entries cited, without tags or fusion partners. Where a name states a change or a piece, a line headed by the entry shows the natural chain unless it says otherwise.
UniProt Q9NR28: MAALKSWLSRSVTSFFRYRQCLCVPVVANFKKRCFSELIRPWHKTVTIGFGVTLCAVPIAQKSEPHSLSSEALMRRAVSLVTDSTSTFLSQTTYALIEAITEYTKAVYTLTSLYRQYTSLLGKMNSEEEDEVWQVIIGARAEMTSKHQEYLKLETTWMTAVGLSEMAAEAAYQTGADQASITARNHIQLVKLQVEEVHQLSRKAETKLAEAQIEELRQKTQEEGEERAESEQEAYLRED
UniProt Q16854: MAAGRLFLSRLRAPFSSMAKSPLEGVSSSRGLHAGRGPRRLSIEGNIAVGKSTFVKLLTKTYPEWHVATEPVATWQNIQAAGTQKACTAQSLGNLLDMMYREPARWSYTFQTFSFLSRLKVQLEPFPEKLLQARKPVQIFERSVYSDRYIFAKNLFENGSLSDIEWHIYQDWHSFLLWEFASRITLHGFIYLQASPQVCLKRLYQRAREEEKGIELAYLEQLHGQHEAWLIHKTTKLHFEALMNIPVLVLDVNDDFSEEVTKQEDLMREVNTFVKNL
UniProt O75190: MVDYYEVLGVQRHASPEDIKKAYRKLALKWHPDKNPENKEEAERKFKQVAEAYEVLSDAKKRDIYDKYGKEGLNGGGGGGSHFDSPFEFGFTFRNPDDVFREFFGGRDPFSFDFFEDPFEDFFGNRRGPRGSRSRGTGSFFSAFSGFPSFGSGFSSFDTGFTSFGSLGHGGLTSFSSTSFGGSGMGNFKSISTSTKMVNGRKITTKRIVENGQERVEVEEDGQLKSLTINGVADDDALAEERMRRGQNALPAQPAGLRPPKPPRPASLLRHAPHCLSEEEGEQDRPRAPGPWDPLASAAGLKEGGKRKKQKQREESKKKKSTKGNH
UniProt Q96DA6: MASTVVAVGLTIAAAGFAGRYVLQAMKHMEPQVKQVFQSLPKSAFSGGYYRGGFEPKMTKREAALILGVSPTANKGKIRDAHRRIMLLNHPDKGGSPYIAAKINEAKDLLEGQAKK
UniProt P0CG22: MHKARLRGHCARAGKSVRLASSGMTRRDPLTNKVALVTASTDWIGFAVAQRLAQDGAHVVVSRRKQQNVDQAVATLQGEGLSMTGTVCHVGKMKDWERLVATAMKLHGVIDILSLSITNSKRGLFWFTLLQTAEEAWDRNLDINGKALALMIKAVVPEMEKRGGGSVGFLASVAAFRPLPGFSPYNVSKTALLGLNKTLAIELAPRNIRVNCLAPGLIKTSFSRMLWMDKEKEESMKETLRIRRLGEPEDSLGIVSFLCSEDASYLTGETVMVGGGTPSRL
UniProt Q5F1R6: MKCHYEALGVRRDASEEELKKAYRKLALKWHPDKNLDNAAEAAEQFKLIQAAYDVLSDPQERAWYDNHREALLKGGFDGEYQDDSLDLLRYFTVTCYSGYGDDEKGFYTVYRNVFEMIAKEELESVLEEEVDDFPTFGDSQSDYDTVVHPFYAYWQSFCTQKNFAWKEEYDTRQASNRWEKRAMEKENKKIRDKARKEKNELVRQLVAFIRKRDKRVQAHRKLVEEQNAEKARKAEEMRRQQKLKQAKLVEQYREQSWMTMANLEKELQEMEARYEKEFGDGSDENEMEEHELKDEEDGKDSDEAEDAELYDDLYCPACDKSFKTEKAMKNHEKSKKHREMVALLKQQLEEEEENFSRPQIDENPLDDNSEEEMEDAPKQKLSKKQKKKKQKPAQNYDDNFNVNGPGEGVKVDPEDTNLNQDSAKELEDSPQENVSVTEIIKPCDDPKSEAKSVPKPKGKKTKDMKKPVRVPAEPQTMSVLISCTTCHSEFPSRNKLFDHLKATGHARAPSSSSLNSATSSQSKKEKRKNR
UniProt Q9NVM6: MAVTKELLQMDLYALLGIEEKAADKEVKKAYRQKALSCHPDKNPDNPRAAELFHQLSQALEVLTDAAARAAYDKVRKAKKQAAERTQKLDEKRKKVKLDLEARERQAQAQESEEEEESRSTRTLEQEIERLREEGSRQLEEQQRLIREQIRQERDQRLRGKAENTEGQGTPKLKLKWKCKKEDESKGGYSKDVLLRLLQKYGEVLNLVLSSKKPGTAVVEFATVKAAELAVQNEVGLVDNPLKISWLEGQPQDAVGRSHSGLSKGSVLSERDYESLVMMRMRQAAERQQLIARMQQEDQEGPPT
UniProt Q8IVF4: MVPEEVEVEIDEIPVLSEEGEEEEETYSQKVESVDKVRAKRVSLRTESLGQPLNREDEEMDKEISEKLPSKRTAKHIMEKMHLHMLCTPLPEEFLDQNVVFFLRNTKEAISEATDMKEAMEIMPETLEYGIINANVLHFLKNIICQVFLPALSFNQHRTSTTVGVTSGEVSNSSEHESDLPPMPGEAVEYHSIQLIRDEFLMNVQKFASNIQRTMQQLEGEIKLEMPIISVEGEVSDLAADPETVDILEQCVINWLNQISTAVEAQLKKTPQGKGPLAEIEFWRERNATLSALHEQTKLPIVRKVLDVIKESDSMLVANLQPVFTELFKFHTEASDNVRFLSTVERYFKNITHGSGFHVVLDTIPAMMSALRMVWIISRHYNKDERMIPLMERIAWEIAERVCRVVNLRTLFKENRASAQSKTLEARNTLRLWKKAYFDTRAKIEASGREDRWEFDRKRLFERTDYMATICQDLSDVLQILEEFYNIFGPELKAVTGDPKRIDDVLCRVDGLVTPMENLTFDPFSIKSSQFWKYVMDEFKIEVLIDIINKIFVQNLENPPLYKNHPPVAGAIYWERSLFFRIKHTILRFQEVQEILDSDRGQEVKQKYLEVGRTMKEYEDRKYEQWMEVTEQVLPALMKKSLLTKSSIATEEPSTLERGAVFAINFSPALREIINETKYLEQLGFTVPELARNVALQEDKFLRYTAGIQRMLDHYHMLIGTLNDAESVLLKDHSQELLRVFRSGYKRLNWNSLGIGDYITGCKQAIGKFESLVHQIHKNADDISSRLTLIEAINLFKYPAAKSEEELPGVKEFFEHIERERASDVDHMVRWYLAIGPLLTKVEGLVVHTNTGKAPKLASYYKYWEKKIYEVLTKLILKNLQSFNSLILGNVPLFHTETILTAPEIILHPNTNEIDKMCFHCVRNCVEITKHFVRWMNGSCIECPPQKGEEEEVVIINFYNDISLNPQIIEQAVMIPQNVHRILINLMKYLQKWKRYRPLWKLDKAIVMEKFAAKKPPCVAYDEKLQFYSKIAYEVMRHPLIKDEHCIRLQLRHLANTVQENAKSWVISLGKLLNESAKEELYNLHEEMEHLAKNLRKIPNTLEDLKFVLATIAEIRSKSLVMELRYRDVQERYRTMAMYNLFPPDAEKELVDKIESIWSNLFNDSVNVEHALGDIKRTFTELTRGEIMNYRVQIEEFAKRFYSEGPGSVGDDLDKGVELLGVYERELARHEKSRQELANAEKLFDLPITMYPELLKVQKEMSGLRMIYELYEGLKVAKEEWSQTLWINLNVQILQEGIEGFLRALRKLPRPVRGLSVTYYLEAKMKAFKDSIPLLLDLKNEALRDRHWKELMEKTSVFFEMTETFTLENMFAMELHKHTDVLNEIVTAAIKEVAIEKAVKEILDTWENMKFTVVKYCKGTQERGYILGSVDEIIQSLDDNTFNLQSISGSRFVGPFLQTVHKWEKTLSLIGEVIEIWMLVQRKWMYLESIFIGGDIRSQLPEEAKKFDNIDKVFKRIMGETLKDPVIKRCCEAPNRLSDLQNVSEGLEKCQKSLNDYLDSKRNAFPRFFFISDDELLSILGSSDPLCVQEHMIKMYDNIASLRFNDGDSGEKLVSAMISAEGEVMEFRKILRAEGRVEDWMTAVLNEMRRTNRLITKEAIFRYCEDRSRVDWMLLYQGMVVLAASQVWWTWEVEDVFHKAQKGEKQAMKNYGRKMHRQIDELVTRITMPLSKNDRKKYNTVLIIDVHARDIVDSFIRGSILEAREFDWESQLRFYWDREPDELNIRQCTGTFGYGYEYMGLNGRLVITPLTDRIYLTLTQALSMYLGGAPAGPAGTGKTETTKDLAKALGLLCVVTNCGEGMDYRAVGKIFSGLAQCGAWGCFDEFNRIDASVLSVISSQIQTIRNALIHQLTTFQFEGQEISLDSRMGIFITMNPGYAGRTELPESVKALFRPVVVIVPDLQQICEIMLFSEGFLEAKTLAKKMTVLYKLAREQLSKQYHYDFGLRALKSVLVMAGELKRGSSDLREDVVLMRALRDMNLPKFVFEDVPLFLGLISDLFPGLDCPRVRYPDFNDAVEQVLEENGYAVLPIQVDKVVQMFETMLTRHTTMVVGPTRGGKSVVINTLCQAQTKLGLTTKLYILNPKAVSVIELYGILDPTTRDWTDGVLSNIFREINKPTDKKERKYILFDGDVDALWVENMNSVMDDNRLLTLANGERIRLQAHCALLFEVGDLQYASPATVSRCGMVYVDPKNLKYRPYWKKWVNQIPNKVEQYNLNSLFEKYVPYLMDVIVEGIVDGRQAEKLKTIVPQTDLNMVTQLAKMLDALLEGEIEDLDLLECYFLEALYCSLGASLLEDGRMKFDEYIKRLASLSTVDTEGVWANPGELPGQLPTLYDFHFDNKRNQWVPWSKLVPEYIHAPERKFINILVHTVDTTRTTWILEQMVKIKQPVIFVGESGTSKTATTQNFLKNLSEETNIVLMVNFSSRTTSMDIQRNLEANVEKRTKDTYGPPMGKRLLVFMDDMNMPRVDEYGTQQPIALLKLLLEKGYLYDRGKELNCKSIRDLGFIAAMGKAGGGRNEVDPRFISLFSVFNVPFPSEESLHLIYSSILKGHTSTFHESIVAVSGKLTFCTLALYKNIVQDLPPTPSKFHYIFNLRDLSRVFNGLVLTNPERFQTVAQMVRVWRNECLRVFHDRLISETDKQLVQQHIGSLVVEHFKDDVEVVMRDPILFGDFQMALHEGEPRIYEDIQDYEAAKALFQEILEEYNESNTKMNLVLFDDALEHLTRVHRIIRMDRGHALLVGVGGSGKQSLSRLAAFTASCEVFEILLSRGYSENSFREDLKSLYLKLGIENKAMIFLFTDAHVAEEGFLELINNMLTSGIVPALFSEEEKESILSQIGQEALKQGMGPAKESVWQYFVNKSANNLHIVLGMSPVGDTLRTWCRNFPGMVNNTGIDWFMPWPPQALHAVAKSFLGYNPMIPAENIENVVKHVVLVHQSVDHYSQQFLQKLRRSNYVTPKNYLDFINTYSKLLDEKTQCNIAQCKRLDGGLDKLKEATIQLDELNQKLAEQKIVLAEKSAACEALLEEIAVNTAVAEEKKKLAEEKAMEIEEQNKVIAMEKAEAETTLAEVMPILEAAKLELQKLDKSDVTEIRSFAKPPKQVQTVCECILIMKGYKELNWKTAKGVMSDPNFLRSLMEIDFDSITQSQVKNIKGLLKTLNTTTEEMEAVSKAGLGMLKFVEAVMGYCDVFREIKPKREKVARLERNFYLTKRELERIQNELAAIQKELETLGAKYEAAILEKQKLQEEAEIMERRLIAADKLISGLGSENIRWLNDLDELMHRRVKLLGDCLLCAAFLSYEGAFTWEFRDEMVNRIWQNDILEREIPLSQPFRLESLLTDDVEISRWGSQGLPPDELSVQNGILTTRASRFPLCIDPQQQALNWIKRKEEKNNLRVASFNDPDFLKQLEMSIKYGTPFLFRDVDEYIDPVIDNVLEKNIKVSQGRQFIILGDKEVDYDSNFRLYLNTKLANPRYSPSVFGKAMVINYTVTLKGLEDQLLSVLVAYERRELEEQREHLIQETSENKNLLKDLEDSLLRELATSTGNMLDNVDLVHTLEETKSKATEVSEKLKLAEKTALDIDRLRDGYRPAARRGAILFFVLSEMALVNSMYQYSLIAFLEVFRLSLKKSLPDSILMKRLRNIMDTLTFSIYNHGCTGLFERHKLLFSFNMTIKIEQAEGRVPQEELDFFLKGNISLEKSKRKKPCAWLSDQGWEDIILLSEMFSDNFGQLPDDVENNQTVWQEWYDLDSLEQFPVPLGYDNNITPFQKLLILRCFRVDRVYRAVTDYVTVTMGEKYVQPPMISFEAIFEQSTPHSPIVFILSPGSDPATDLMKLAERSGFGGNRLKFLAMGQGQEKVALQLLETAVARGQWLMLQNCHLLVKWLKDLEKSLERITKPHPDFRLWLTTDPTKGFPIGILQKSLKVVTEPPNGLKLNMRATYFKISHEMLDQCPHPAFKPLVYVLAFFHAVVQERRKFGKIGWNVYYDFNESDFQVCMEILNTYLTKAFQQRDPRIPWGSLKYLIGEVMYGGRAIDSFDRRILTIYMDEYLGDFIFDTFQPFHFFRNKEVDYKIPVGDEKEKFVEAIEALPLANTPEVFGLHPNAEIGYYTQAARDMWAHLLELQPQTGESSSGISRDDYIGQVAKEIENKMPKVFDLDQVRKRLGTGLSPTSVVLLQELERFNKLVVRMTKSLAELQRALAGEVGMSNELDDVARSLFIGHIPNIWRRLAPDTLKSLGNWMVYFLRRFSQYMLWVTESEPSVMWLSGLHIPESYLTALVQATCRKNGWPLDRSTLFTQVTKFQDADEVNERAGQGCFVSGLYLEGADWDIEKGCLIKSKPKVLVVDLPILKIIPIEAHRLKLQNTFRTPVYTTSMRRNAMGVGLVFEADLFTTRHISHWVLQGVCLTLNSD

[2] = compound: CCCS(=O)(=O)Nc1ccc(F)c(C(=O)c2c[nH]c3ncc(Cl)cc23)c1F
Summary of the method: as §1

[3] = compound: CCN(CCCOc1ccc2c(Nc3cc(CC(=O)Nc4cccc(F)c4)[nH]n3)ncnc2c1)CCOP(=O)(O)O [barasertib]
Summary of the method: as §1

[4] = compound: CC[C@@H]1C(=O)N(C)c2cnc(Nc3ccc(C(=O)NC4CCN(C)CC4)cc3OC)nc2N1C1CCCC1
Summary of the method: as §1

[5] = compound: CC[C@@H]1C(=O)N(C)c2cnc(Nc3ccc(C(=O)N[C@H]4CC[C@H](N5CCN(CC6CC6)CC5)CC4)cc3OC)nc2N1C(C)C [volasertib]
Summary of the method: as §1

[6] = compound: CCn1c(C(=O)N(C2CC2)C2CC2)cc2c3c(ncn3C)c(Nc3cc(C)n(C)n3)nc21
Summary of the method: as §1

[7] = compound: CCn1cc(-c2ccnc3[nH]c(-c4cccc(CN(C)C)c4)cc23)c(-c2ccc(NC(=O)N(C)C)cc2)n1
Summary of the method: as §1

[8] = compound: CN1CCC(CNc2ccc3ncc(-c4cccc(OC(F)(F)F)c4)n3n2)CC1
Summary of the method: as §1

[9] = compound: CN1CCN(CCOc2cc(OC3CCOCC3)c3c(Nc4c(Cl)ccc5c4OCO5)ncnc3c2)CC1 [saracatinib]
Summary of the method: as §1

[10] = compound: CN1CCN(c2nc(C3=C(c4c[nH]c5ccccc45)C(=O)NC3=O)c3ccccc3n2)CC1 [sotrastaurin]
Summary of the method: as §1

Measured: log2 fold change

DOCK7 (UniProt Q96N67)
inactive: [1] 0.045 | [2] 0.021 | [3] 0.027 | [4] -0.057 | [5] -0.01 | [6] 0 | [7] -0.068 | [8] -0.041 | [9] -0.028 | [10] 0.02

DPCD (UniProt Q9BVM2)
inactive: [1] -0.053 | [2] 0.038 | [3] 0.019 | [4] 0.041 | [5] -0.002 | [6] -0.035 | [7] -0.075 | [8] 0.001 | [9] 0.021 | [10] 0.023

DIABLO (UniProt Q9NR28)
inactive: [1] 0.008 | [2] -0.021 | [3] 0.202 | [4] 0.01 | [5] 0.024 | [6] 0.006 | [7] -0.136 | [8] 0.013 | [9] 0.039 | [10] 0.033

DGUOK (UniProt Q16854)
inactive: [1] 0.056 | [2] 0.024 | [3] 0.021 | [4] 0.019 | [5] -0.006 | [6] -0.012 | [7] -0.102 | [8] 0.021 | [9] -0.02 | [10] -0.011

DNAJB6 (UniProt O75190)
inactive: [1] -0.026 | [2] 0.017 | [3] 0.046 | [4] -0.005 | [5] 0.011 | [6] -0.001 | [7] -0.018 | [8] 0.008 | [9] 0.079 | [10] 0.015

DNAJC19 (UniProt Q96DA6)
inactive: [1] -0.021 | [2] 0.012 | [3] 0.003 | [4] -0.004 | [5] 0.017 | [6] -0.009 | [7] 0.028 | [8] -0.124 | [9] -0.004 | [10] -0.054

DHRS4L1 (UniProt P0CG22)
inactive: [1] -0.085 | [2] 0.01 | [3] 0.014 | [4] 0.015 | [5] -0.018 | [6] -0.058 | [7] 0.116 | [8] 0.049 | [9] 0.063 | [10] -0.052

DOCK10 (UniProt Q96BY6)
active: [7] -0.747
inactive: [1] 0.095 | [2] -0.008 | [3] -0.054 | [4] 0.085 | [5] 0.027 | [6] 0.043 | [8] 0.387 | [9] 0.001 | [10] 0.007

DGAT1 (UniProt O75907)
inactive: [1] 0.034 | [2] -0.028 | [3] 0.012 | [4] 0.027 | [5] 0.034 | [6] -0.064 | [7] -0.048 | [8] 0.035 | [9] -0.007 | [10] 0.007

DGKZ (UniProt Q13574)
inactive: [1] 0.014 | [2] 0.052 | [3] -0.024 | [4] -0.083 | [5] -0.024 | [6] -0.01 | [7] -0.035 | [8] -0.009 | [9] -0.016 | [10] -0.065

DNAJC21 isoform 3 (UniProt Q5F1R6)
inactive: [1] 0.011 | [2] 0.004 | [3] 0.022 | [4] -0.008 | [5] -0.007 | [6] 0.008 | [7] 0.124 | [8] -0.115 | [9] 0.009 | [10] 0.028

DNAJC9 (UniProt Q8WXX5)
inactive: [1] -0.027 | [2] 0.002 | [3] -0.047 | [4] 0.007 | [5] 0.012 | [6] -0.011 | [7] 0.034 | [8] -0.027 | [9] 0.018 | [10] -0.016

DLST (UniProt P36957)
inactive: [1] 0.033 | [2] 0.001 | [3] -0.003 | [4] 0.05 | [5] 0.016 | [6] 0.017 | [7] -0.01 | [8] 0.049 | [9] -0.009 | [10] 0.013

Copied from above (eight entries):
DGUOK (UniProt Q16854)
inactive: [1] 0.056 | [2] 0.024 | [3] 0.021 | [4] 0.019 | [5] -0.006 | [6] -0.012 | [7] -0.102 | [8] 0.021 | [9] -0.02 | [10] -0.011

DNAJB6 (UniProt O75190)
inactive: [1] -0.026 | [2] 0.017 | [3] 0.046 | [4] -0.005 | [5] 0.011 | [6] -0.001 | [7] -0.018 | [8] 0.008 | [9] 0.079 | [10] 0.015

DNAJC19 (UniProt Q96DA6)
inactive: [1] -0.021 | [2] 0.012 | [3] 0.003 | [4] -0.004 | [5] 0.017 | [6] -0.009 | [7] 0.028 | [8] -0.124 | [9] -0.004 | [10] -0.054

DHRS4L1 (UniProt P0CG22)
inactive: [1] -0.085 | [2] 0.01 | [3] 0.014 | [4] 0.015 | [5] -0.018 | [6] -0.058 | [7] 0.116 | [8] 0.049 | [9] 0.063 | [10] -0.052

DOCK10 (UniProt Q96BY6)
active: [7] -0.747
inactive: [1] 0.095 | [2] -0.008 | [3] -0.054 | [4] 0.085 | [5] 0.027 | [6] 0.043 | [8] 0.387 | [9] 0.001 | [10] 0.007

DGAT1 (UniProt O75907)
inactive: [1] 0.034 | [2] -0.028 | [3] 0.012 | [4] 0.027 | [5] 0.034 | [6] -0.064 | [7] -0.048 | [8] 0.035 | [9] -0.007 | [10] 0.007

DGKZ (UniProt Q13574)
inactive: [1] 0.014 | [2] 0.052 | [3] -0.024 | [4] -0.083 | [5] -0.024 | [6] -0.01 | [7] -0.035 | [8] -0.009 | [9] -0.016 | [10] -0.065

DNAJC21 isoform 3 (UniProt Q5F1R6)
inactive: [1] 0.011 | [2] 0.004 | [3] 0.022 | [4] -0.008 | [5] -0.007 | [6] 0.008 | [7] 0.124 | [8] -0.115 | [9] 0.009 | [10] 0.028

(further entries)

DHX37 (UniProt Q8IY37)
inactive: [1] 0.051 | [2] 0.006 | [3] -0.097 | [4] -0.071 | [5] -0.026 | [6] 0.009 | [7] 0.104 | [8] 0 | [9] 0.067 | [10] 0.054

DMD (UniProt P11532)
inactive: [1] 0.005 | [2] 0.025 | [3] 0.023 | [4] 0.047 | [5] -0.04 | [6] -0.004 | [7] 0.103 | [8] 0.006 | [9] 0.006 | [10] 0.029

DHX15 (UniProt O43143)
inactive: [1] 0 | [2] 0.023 | [3] 0 | [4] -0.019 | [5] -0.004 | [6] -0.031 | [7] 0.009 | [8] 0.034 | [9] -0.006 | [10] 0.017

DNM2 (UniProt P50570)
inactive: [1] 0.002 | [2] 0.005 | [3] 0.037 | [4] -0.024 | [5] -0.043 | [6] 0.029 | [7] -0.012 | [8] 0.013 | [9] 0.016 | [10] 0.001

DIP2A (UniProt Q14689)
inactive: [1] 0.109 | [2] 0.012 | [3] 0.051 | [4] -0.02 | [5] -0.041 | [6] 0.069 | [7] -0.027 | [8] 0.009 | [9] -0.012 | [10] 0.07

DLG1 isoform 2 (UniProt Q12959)
inactive: [1] 0.025 | [2] -0.024 | [3] 0.007 | [4] -0.019 | [5] 0.001 | [6] -0.002 | [7] 0.017 | [8] -0.042 | [9] -0.007 | [10] -0.006

DOCK11 (UniProt Q5JSL3)
inactive: [1] 0.02 | [2] 0.019 | [3] 0.048 | [4] -0.013 | [5] -0.037 | [6] -0.019 | [7] -0.077 | [8] -0.004 | [9] -0.008 | [10] 0.036

DHX38 (UniProt Q92620)
inactive: [1] 0.018 | [2] 0.025 | [3] -0.02 | [4] 0.051 | [5] -0.022 | [6] -0.011 | [7] -0.014 | [8] 0.019 | [9] -0.008 | [10] 0.011

DNAJA1 (UniProt P31689)
inactive: [1] 0.007 | [2] -0.025 | [3] -0.013 | [4] -0.002 | [5] 0 | [6] -0.003 | [7] -0.166 | [8] 0.043 | [9] 0.035 | [10] 0.042

DNAJC17 (UniProt Q9NVM6)
inactive: [1] -0.076 | [2] -0.008 | [3] -0.038 | [4] 0.032 | [5] 0.013 | [6] 0.064 | [7] -0.022 | [8] 0.017 | [9] -0.025 | [10] 0.047

DOHH (UniProt Q9BU89)
inactive: [1] -0.019 | [2] 0.016 | [3] 0.088 | [4] 0.033 | [5] 0.058 | [6] -0.034 | [7] -0.081 | [8] -0.087 | [9] -0.027 | [10] -0.053

DNAH10 (UniProt Q8IVF4)
inactive: [1] 0.067 | [2] 0 | [3] 0.069 | [4] 0.064 | [5] 0.044 | [6] -0.05 | [8] 0.139 | [9] 0.022 | [10] -0.029
active: [7] -0.582

DNAJC8 (UniProt O75937)
inactive: [1] -0.023 | [2] -0.005 | [3] -0.014 | [4] 0.059 | [5] 0.018 | [6] 0.056 | [7] 0.204 | [8] -0.115 | [9] -0.018 | [10] -0.013

DHX30 isoform 2 (UniProt Q7L2E3)
inactive: [1] 0.01 | [2] 0.016 | [3] -0.039 | [4] 0.014 | [5] -0.024 | [6] 0.015 | [7] 0.017 | [8] -0.029 | [9] 0.001 | [10] 0.016

DLG3 isoform 2 (UniProt Q92796)
inactive: [1] 0.109 | [2] 0.005 | [3] 0.047 | [4] -0.128 | [5] -0.006 | [6] -0.057 | [7] -0.14 | [8] 0.038 | [9] 0.004 | [10] 0.043
